# Measurements reported in publication PMC8384837.
# Where a chain is given by its changes, count along the chain named. This is one part of the list. For some assays here: At the low end of the ranking, values are background and their order means little.
# Legend:
# Conditions in all cases: yeast three-hybrid, YBZ-1, SC-Leu-His + 0.5 mM 3-AT, 4 days
# [1] = biological target: T1, PUM1 PUF domain R4-RCG N971R + H972C + Q975G (Homo sapiens) (UniProt Q14671)
# T1 sequence: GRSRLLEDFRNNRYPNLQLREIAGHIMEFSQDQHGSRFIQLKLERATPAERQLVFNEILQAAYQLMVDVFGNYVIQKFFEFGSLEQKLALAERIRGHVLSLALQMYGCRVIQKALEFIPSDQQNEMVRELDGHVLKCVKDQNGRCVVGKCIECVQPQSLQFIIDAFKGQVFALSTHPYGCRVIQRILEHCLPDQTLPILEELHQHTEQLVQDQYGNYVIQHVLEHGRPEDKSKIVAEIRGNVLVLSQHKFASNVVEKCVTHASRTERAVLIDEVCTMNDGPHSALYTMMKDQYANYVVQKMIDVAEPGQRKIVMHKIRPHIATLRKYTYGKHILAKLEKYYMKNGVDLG
# [2] = biological target: T2, PUM1 PUF domain R4-RGG N971R + H972G + Q975G (Homo sapiens) (UniProt Q14671)
# T2 sequence: T1 sequence with C145G
# [3] = biological target: T3, PUM1 PUF domain R4-RGY N971R + H972G + Q975Y (UniProt Q14671)
# T3 sequence: T1 sequence with C145G, G148Y
# [4] = biological target: T4, PUM1 PUF domain R4-RIY N971R + H972I + Q975Y (UniProt Q14671)
# T4 sequence: T1 sequence with C145I, G148Y
# [5] = biological target: T5, PUM1 PUF domain R4-RLF N971R + H972L + Q975F (UniProt Q14671)
# T5 sequence: T1 sequence with C145L, G148F
# [6] = biological target: T6, PUM1 PUF domain R4-RMG N971R + H972M + Q975G (Homo sapiens) (UniProt Q14671)
# T6 sequence: T1 sequence with C145M
# [7] = biological target: T7, PUM1 PUF domain R4-RMI N971R + H972M + Q975I (Homo sapiens) (UniProt Q14671)
# T7 sequence: T1 sequence with C145M, G148I
# [8] = biological target: T8, PUM1 PUF domain R4-RMR N971R + H972M + Q975R (UniProt Q14671)
# T8 sequence: T1 sequence with C145M, G148R
# [9] = biological target: T9, PUM1 PUF domain R4-RMT N971R + H972M + Q975T (UniProt Q14671)
# T9 sequence: T1 sequence with C145M, G148T
# [10] = biological target: T10, PUM1 PUF domain R4-RVY N971R + H972V + Q975Y (UniProt Q14671)
# T10 sequence: T1 sequence with C145V, G148Y
# [11] = biological target: T11, PUM1 PUF domain R4-SIG N971S + H972I + Q975G (Homo sapiens) (UniProt Q14671)
# T11 sequence: T1 sequence with R144S, C145I
# [12] = biological target: T12, PUM1 PUF domain R4-SLS N971S + H972L + Q975S (Homo sapiens) (UniProt Q14671)
# T12 sequence: T1 sequence with R144S, C145L, G148S
# [13] = biological target: T13, PUM1 PUF domain R4-SLY N971S + H972L + Q975Y (UniProt Q14671)
# T13 sequence: T1 sequence with R144S, C145L, G148Y
# [14] = biological target: T14, PUM1 PUF domain R4-SML N971S + H972M + Q975L (Homo sapiens) (UniProt Q14671)
# T14 sequence: T1 sequence with R144S, C145M, G148L
# [15] = biological target: T15, PUM1 PUF domain R4-SMR N971S + H972M + Q975R (Homo sapiens) (UniProt Q14671)
# T15 sequence: T1 sequence with R144S, C145M, G148R
# [16] = biological target: T16, PUM1 PUF domain R4-SNF N971S + H972N + Q975F (Homo sapiens) (UniProt Q14671)
# T16 sequence: T1 sequence with R144S, C145N, G148F
# [17] = biological target: T17, PUM1 PUF domain R4-SPT N971S + H972P + Q975T (Homo sapiens) (UniProt Q14671)
# T17 sequence: T1 sequence with R144S, C145P, G148T
# [18] = biological target: T18, PUM1 PUF domain R4-SQR N971S + H972Q + Q975R (Homo sapiens) (UniProt Q14671)
# T18 sequence: T1 sequence with R144S, C145Q, G148R
# [19] = biological target: T19, PUM1 PUF domain R4-SRC N971S + H972R + Q975C (Homo sapiens) (UniProt Q14671)
# T19 sequence: T1 sequence with R144S, C145R, G148C
# [20] = biological target: T20, PUM1 PUF domain R4-SRL N971S + H972R + Q975L (Homo sapiens) (UniProt Q14671)
# T20 sequence: T1 sequence with R144S, C145R, G148L
# [21] = biological target: T21, PUM1 PUF domain R4-SRR N971S + H972R + Q975R (Homo sapiens) (UniProt Q14671)
# T21 sequence: T1 sequence with R144S, C145R, G148R
# [22] = biological target: T22, PUM1 PUF domain R4-TRA N971T + H972R + Q975A (Homo sapiens) (UniProt Q14671)
# T22 sequence: T1 sequence with R144T, C145R, G148A
# [23] = biological target: T23, PUM1 PUF domain R4-TRT N971T + H972R + Q975T (Homo sapiens) (UniProt Q14671)
# T23 sequence: T1 sequence with R144T, C145R, G148T
# [24] = biological target: T24, PUM1 PUF domain R4-VGI N971V + H972G + Q975I (Homo sapiens) (UniProt Q14671)
# T24 sequence: T1 sequence with R144V, C145G, G148I
# [25] = biological target: T25, PUM1 PUF domain R4-VGL N971V + H972G + Q975L (Homo sapiens) (UniProt Q14671)
# T25 sequence: T1 sequence with R144V, C145G, G148L
# [26] = biological target: T26, PUM1 PUF domain R4-VGY N971V + H972G + Q975Y (UniProt Q14671)
# T26 sequence: T1 sequence with R144V, C145G, G148Y
# [27] = biological target: T27, PUM1 PUF domain R4-VLY N971V + H972L + Q975Y (UniProt Q14671)
# T27 sequence: T1 sequence with R144V, C145L, G148Y
# [28] = biological target: T28, PUM1 PUF domain R4-VRG N971V + H972R + Q975G (Homo sapiens) (UniProt Q14671)
# T28 sequence: T1 sequence with R144V, C145R
# [29] = biological target: T29, PUM1 PUF domain R4-VRT N971V + H972R + Q975T (Homo sapiens) (UniProt Q14671)
# T29 sequence: T1 sequence with R144V, C145R, G148T
# [30] = biological target: T30, PUM1 PUF domain R4-VSI N971V + H972S + Q975I (Homo sapiens) (UniProt Q14671)
# T30 sequence: T1 sequence with R144V, C145S, G148I
# [31] = biological target: T31, PUM1 PUF domain R4-VSL N971V + H972S + Q975L (Homo sapiens) (UniProt Q14671)
# T31 sequence: T1 sequence with R144V, C145S, G148L
# [32] = biological target: T32, PUM1 PUF domain R4-YRL N971Y + H972R + Q975L (Homo sapiens) (UniProt Q14671)
# T32 sequence: T1 sequence with R144Y, C145R, G148L
sequence,measurement,setting,value
GGCUAGAACUAGUGGAUCCCCCGGCGCCCGGCGGCUCGAGCCCGGGUAAGUGUAUAUAGUCUGCAUGCCGCCGGGCGCCAUGCCUGCAGGUCGACUCUAGAAAACAUG,binding signal (log2 enrichment (interaction score)),[1],-1.09
same,binding signal (log2 enrichment (interaction score)),[2],-0.17
same,binding signal (log2 enrichment (interaction score)),[3],< -6.34
same,binding signal (log2 enrichment (interaction score)),[4],< -5.85
same,binding signal (log2 enrichment (interaction score)),[5],< -6.65
same,binding signal (log2 enrichment (interaction score)),[6],-2.84
same,binding signal (log2 enrichment (interaction score)),[7],-4.15
same,binding signal (log2 enrichment (interaction score)),[8],< -7.09
same,binding signal (log2 enrichment (interaction score)),[9],< -5.9
same,binding signal (log2 enrichment (interaction score)),[10],< -6.71
same,binding signal (log2 enrichment (interaction score)),[11],-3.55
same,binding signal (log2 enrichment (interaction score)),[12],-2.75
same,binding signal (log2 enrichment (interaction score)),[13],< -5.9
same,binding signal (log2 enrichment (interaction score)),[14],-0.89
same,binding signal (log2 enrichment (interaction score)),[15],-0.77
same,binding signal (log2 enrichment (interaction score)),[16],0.63
same,binding signal (log2 enrichment (interaction score)),[17],-4.31
same,binding signal (log2 enrichment (interaction score)),[18],0.12
same,binding signal (log2 enrichment (interaction score)),[19],0.58
same,binding signal (log2 enrichment (interaction score)),[20],0.07
same,binding signal (log2 enrichment (interaction score)),[21],0.62
same,binding signal (log2 enrichment (interaction score)),[22],0.13
same,binding signal (log2 enrichment (interaction score)),[23],0.32
same,binding signal (log2 enrichment (interaction score)),[24],-3.68
same,binding signal (log2 enrichment (interaction score)),[25],-3.31
same,binding signal (log2 enrichment (interaction score)),[26],< -7.27
same,binding signal (log2 enrichment (interaction score)),[27],< -7.72
same,binding signal (log2 enrichment (interaction score)),[28],-1.69
same,binding signal (log2 enrichment (interaction score)),[29],-2.12
same,binding signal (log2 enrichment (interaction score)),[30],-2.88
same,binding signal (log2 enrichment (interaction score)),[31],-4.44
same,binding signal (log2 enrichment (interaction score)),[32],-0.93

# Nothing new here: an excerpt of the list.
sequence,measurement,setting,value
GGCUAGAACUAGUGGAUCCCCCGGCGCCCGGCGGCUCGAGCCCGGGUAAGUGUAUAUAGUCUGCAUGCCGCCGGGCGCCAUGCCUGCAGGUCGACUCUAGAAAACAUG,binding signal (log2 enrichment (interaction score)),[26],< -7.27
same,binding signal (log2 enrichment (interaction score)),[27],< -7.72
